Test results taken from patent US20220185898A1.
Results are given in words; binding and its absence hold for the method and conditions named. Some entries that bind do so weakly or less than the wild type.

By UniProt entry, the sequences of proteins in these tests, tags left out. Where a name states a change or a piece, a line headed by the entry shows the natural chain unless it says otherwise. Residues count along the entry.
UniProt Q99523: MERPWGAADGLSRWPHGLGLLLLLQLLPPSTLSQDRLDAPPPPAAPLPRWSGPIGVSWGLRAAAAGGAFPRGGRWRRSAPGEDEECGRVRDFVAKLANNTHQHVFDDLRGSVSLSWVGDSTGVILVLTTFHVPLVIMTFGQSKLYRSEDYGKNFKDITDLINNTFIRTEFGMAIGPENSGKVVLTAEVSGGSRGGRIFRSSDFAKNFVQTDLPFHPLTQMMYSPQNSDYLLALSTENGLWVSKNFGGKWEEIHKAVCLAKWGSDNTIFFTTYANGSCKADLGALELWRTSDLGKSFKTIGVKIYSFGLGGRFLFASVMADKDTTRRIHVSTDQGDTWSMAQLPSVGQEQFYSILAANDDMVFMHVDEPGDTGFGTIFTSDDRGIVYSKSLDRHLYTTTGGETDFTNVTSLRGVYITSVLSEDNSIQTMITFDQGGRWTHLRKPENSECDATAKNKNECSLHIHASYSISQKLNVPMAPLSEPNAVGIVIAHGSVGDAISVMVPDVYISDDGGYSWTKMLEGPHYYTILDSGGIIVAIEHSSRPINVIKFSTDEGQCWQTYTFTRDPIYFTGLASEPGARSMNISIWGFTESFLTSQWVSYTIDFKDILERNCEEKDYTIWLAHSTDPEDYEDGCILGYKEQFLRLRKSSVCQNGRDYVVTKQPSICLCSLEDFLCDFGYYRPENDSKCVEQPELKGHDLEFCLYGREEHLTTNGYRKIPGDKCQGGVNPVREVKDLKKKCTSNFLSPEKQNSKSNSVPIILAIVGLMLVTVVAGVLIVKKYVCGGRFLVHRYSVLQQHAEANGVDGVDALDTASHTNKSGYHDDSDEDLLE
UniProt P01138, residues 19-241: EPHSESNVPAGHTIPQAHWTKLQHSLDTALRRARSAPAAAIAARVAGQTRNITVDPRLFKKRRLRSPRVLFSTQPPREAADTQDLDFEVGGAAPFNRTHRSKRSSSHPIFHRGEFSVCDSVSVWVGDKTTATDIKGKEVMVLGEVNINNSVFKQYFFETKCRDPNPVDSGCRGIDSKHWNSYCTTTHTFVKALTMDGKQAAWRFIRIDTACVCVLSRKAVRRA

Molecular target: recombinant human Sortilin, His-tagged (R&D Systems) (human) (UniProt Q99523)
Assay: Biacore SPR, pro-NGF on His-captured human Sortilin (scheme of the assay)

binding: binds
Substance: human pro-NGF (from UniProt P01138 19-241) (ligand)
